Experimental data reported in publication PMC5748981.
No constants are given. Whether binding was seen depends on the method and setting. Binding seen in cells or lysates may run through a third protein. Some binding calls cover weakened binding; strength is not graded here. Where a sequence is shown, tags or fusion partners need not be part of it.

T1: GFP-Ldo16 expressed from a NOP1 promoter (S. cerevisiae) (UniProt P40219)
T1 sequence: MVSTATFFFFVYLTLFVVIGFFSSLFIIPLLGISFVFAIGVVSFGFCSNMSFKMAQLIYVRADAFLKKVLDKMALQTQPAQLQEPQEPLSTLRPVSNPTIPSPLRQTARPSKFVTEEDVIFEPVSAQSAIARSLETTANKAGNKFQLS

T2: GFP-Ldo16 expressed from a NOP1 promoter (S. cerevisiae), P40219
T2 chain: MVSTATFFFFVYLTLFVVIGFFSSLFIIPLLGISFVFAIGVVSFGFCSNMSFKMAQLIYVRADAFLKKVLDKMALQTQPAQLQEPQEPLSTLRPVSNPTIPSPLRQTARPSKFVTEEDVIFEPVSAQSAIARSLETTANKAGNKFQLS


Tests used:
[1] = target: T1, GFP-Ldo16 expressed from a NOP1 promoter (S. cerevisiae); assay: co-IP; GFP-trap from lysates with 1% digitonin, 4°C; elution with 0.2 M glycine pH 2.5; SDS-PAGE and Western blot with antibodies against Sei1 and Ldb16
[2] = target: T2, GFP-Ldo16 expressed from a NOP1 …; assay: as above; details: remark: other sources report otherwise

| binding [1] | binding [2] | Binder |
| --- | --- | --- |
| binds |  | Ldb16 (protein, UniProt P25587 1-256) MFVVDWSVQLCMGVISPLFRALVQLPLSIFVWNGFQLVALPINIPLRLFLGTSLSRLVAQTSTLDFYVVLTLFQYFAVLCAFGSIIGLIFGFILGVFHSICGVPSVYISLEWKRWFAPIRTVLERASTSIVNIMRGQTIAPIPMPKPNPTHISKPNMKKFHDEPGADDMTITHDVNCYITPCQTPTNEKIQHYNNDSFNTTTTDDEPTDIWDRSDTYQNSFVTNETLMSLSNRAKLRRNASDADIVNIKILRRNSR |
|  | binds | Sei1, Q06058 1-285 (protein) MKINVSRPLQFLQWSSYIVVAFLIQLLIILPLSILIYHDFYLRLLPADSSNVVPLNTFNILNGVQFGTKFFQSIKSIPVGTDLPQTIDNGLSQLIPMRDNMEYKLDLNLQLYCQSKTDHLNLDNLLIDVYRGPGPLLGAPGGSNSKDEKIFHTSRPIVCLALTDSMSPQEIEQLGPSRLDVYDEEWLNTIRIEDKISLESSYETISVFLKTEIAQRNLIIHPESGIKFRMNFEQGLRNLMLRKRFLSYIIGISIFHCIICVLFFITGCTAFIFVRKGQEKSKKHS |
